Measurements from article PMC8980073.
These are yes or no findings as the source states them, for the method shown. Binding seen in cells or lysates may run through a third protein. Some results given as binding are weak or reduced against the parent protein; the word gives no strength. Where a sequence is shown, tags or fusion partners need not be part of it.

Amino acid sequences for entries named in this document (tags omitted). Residues count along the entry.
UniProt Q15075, residues 1-209: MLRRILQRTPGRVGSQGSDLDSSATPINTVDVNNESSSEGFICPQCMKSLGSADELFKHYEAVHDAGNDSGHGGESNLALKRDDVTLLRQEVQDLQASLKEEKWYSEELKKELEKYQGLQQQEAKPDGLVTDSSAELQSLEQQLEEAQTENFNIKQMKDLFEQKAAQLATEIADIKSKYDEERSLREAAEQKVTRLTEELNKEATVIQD

Molecular target: GST-EEA1^1-209 (human) (UniProt Q15075)
Assay: pull-down; GST-EEA1^1-209 on glutathione sepharose beads incubated with lysates of GFP-Rab5A^REMI/WT cells or the same cells with deletion of pripA or tbcrA; 20 mM Hepes pH 7.2, 100 mM NaCl, 0.3% CHAPS, 5 mM MgCl2, 1 mM DTT, 4 °C, 2 h; anti-GFP blot; only the target purified

B1: GFP-Rab5A^REMI (protein, UniProt Q86JP3 1-201)
chain: MNNNNKIFQFKLVLLGEAAVGKSSLVLRFVRGHFLDYQESTIGAAFLAQTVCLNDTTVKFEIWDTAGQERYHTLAPMYYRGAQAAIVVYDIRSEDSFERAIKWVKELQRQGSPNIVIALAGNKLDLAAKRKVETAEAQQYAEENGLLFMETSAKTSQNVNELFVEIAKKLPKTPTTRPGSGRVAIAPIDNGNTGKKNKCCN
  binding: binds
